No constants are given. Whether binding was seen depends on the method and setting. In cells and extracts the contact can be indirect. Some entries that bind do so weakly or less than the wild type.
How the values were obtained:
[1] = molecular target: Flag-tagged Vpr (HIV-1 viral protein R, from pLAI.2) (HIV-1 (strain LAI)) (UniProt P05928); test: co-IP; HeLa cells co-transfected with plvx-PCIF and Flag-Vpr for 2 days; lysate in IP lysis buffer, anti-Flag M2 antibody (mouse IgG as control) overnight at 4 °C, protein G magnetic beads; PCIF1 and Vpr detected by western blotting
[2] = molecular target: Flag-tagged PCIF1 expressed in MT4 cells (UniProt Q9H4Z3); test: co-IP; MT4 cells expressing Flag-PCIF1 infected with HIVLAI (MOI = 1) for 3 days; Flag immunoprecipitation; Flag-PCIF1 and Vpr detected by western blotting

Protein sequences, listed by entry. Tags and fused reporters are not part of them.
UniProt P05928: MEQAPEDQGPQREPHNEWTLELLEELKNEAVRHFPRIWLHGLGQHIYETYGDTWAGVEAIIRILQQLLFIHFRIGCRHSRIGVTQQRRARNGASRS
UniProt Q9H4Z3: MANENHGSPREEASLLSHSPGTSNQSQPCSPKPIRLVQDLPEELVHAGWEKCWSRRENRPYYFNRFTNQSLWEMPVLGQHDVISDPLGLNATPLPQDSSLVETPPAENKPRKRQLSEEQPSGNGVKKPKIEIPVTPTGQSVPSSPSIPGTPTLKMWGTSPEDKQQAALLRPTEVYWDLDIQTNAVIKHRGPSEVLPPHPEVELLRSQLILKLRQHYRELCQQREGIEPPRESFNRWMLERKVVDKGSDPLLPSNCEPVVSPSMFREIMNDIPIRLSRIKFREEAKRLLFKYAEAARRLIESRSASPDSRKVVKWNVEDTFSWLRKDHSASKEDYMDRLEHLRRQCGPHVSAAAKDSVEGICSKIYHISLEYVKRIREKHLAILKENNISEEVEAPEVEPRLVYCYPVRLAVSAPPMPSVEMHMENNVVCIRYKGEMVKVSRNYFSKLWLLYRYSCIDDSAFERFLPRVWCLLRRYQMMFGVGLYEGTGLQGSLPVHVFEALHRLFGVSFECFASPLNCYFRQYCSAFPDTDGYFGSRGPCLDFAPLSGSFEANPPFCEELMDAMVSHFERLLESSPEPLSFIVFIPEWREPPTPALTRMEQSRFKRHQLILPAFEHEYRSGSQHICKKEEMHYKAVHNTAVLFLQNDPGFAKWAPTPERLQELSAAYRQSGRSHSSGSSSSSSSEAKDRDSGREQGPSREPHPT

Row | Substance | binding [1] | binding [2]
1 | Phosphorylated CTD Interacting Factor 1 (PCIF1), expressed from plvx-PCIF1 (from UniProt Q9H4Z3 1-704) (enzyme) | binds | –
2 | Vpr expressed from HIV-1 LAI during infection of MT4 cells (from UniProt P05928 1-96) | – | binds
